No constants are given. Whether binding was seen depends on the method and setting. In cells and extracts the contact can be indirect. Some entries that bind do so weakly or less than the wild type. Where a sequence is shown, tags or fusion partners need not be part of it.
Columns and labels:
GST-SXL = biological target: T1, GST-SXL (UniProt P19339); assay: pull-down; GST-PTB or GST-SXL as bait; MS2 fusion peptides transcribed and translated in vitro; RNase A 25 ug/ml after translation and 0.5 ug/ml in the pre-incubation, 3 h at 4°C; only the target purified
T1 sequence: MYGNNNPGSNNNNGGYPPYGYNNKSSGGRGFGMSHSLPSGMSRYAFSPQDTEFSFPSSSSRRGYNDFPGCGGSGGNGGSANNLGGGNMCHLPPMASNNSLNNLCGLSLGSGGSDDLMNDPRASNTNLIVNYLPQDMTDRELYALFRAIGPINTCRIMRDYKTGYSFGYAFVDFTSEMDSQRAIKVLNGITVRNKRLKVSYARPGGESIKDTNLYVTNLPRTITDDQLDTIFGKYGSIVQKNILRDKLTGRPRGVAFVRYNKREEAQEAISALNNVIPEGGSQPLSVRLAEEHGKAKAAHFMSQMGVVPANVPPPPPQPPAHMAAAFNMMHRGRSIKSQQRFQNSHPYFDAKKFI

The chains behind the UniProt entries cited, without tags or fusion partners.
UniProt P03612: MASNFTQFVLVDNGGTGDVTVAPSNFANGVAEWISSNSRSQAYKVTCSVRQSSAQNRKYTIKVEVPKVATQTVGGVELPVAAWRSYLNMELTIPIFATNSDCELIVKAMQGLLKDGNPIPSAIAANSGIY
UniProt P26599: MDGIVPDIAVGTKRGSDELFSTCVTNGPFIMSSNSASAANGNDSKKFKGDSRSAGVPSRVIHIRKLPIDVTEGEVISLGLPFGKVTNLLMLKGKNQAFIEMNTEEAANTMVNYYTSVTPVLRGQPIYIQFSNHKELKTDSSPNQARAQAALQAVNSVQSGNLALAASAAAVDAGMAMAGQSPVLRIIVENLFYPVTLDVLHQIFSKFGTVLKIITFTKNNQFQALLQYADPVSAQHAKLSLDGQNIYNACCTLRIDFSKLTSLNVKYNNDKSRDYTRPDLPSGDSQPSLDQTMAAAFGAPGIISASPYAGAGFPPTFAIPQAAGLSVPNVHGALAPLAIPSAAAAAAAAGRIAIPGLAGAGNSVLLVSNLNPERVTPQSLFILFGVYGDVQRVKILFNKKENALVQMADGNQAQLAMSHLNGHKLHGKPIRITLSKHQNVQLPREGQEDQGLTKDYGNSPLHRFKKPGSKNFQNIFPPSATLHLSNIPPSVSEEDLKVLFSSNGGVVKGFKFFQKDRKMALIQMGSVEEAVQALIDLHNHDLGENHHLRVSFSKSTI

[1] = biological target: T2, FLAG-Raver1 full-length wild-type (UniProt Q9CW46); assay: co-IP; FLAG-tagged proteins transfected, cells lysed 48 h later; anti-FLAG (Sigma M2) with protein G sepharose, 2 h at 4°C; Western blot against PTB
T2 sequence: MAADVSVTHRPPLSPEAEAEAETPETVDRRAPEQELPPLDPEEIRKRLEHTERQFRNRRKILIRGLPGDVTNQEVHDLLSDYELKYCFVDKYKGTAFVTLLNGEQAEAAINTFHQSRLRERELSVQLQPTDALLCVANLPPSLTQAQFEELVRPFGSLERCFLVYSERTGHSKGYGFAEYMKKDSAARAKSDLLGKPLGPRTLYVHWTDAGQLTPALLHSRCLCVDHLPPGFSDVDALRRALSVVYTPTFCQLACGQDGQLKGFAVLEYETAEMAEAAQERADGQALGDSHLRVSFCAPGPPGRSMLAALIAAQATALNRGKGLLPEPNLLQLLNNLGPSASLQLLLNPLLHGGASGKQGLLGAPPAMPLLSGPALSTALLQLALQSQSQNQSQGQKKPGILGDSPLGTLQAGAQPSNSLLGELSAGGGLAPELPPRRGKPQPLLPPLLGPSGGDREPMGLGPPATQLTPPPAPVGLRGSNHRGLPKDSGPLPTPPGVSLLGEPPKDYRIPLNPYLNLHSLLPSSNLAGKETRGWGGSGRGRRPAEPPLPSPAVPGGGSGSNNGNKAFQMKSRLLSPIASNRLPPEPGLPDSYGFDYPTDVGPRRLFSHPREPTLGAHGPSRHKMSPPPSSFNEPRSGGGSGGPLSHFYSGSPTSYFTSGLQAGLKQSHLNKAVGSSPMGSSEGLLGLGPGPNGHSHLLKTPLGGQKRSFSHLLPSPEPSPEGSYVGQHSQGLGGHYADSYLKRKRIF

binding (GST-SXL)	binding [1]	Substance
no binding	–	MS2 alone (FLAG-MS2) (from UniProt P03612 1-130)
–	binds	PTB (endogenous, lysate of transfected cells) (from UniProt P26599 1-557)
